Laboratory results as given in the supplement of paper PMC10849652.
The list shows a part of the results. Residues, ends and D or L forms follow the SMILES beside them. *: point of attachment. Cbz = O=C(OCc1ccccc1)*

Amino acid sequences for entries named in this document (tags omitted). A change or cut given only in a name is not applied to a line headed by its entry.
UniProt Q13769: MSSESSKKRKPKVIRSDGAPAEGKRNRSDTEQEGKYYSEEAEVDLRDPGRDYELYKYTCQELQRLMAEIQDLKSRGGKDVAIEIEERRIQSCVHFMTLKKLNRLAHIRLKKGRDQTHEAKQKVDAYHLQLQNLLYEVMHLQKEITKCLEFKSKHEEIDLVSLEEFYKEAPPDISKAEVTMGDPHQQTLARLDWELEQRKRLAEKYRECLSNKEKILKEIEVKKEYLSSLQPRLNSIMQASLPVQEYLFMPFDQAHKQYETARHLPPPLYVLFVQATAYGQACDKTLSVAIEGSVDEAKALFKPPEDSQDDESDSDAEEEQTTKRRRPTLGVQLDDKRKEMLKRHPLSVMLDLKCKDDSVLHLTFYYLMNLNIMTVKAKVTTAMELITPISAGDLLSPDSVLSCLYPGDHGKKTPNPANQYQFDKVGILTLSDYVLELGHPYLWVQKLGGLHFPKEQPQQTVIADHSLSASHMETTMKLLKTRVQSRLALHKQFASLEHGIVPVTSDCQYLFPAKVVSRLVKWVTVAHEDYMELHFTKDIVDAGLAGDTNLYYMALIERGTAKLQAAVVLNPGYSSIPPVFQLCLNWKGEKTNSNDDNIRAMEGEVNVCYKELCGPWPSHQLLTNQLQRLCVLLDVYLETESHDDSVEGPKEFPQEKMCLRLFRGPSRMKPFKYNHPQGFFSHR
UniProt Q15554: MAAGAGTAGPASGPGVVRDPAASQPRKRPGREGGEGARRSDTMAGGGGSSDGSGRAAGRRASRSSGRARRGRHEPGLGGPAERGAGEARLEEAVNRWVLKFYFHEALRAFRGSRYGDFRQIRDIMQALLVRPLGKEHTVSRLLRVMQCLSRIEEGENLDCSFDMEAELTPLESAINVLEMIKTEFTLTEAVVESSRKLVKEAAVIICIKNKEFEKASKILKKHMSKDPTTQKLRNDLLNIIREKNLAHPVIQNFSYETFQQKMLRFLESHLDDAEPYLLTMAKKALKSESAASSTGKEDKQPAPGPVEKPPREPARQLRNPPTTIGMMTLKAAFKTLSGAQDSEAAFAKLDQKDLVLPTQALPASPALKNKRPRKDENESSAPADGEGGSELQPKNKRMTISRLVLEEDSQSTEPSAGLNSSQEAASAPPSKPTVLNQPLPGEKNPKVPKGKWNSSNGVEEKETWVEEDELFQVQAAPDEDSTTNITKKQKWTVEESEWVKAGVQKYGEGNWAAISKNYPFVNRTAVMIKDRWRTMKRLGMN
UniProt P21980: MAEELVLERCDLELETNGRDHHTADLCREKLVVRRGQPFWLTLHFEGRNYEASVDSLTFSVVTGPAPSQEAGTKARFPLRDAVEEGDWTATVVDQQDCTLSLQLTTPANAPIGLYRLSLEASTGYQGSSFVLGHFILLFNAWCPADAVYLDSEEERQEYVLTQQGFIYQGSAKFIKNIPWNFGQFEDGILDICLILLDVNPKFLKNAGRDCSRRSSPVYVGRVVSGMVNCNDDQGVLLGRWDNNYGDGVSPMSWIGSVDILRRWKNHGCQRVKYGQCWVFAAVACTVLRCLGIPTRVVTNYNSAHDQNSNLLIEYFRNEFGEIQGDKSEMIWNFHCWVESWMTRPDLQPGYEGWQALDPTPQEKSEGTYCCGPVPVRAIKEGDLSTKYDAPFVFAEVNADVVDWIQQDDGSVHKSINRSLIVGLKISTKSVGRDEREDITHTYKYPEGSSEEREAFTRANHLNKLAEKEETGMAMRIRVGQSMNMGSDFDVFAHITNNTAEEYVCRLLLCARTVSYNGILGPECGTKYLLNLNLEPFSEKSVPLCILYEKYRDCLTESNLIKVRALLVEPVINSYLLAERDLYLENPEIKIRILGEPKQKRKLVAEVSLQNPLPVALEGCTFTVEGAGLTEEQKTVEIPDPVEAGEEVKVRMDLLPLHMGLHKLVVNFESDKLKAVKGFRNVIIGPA
UniProt Q13488, whole entry, looked up: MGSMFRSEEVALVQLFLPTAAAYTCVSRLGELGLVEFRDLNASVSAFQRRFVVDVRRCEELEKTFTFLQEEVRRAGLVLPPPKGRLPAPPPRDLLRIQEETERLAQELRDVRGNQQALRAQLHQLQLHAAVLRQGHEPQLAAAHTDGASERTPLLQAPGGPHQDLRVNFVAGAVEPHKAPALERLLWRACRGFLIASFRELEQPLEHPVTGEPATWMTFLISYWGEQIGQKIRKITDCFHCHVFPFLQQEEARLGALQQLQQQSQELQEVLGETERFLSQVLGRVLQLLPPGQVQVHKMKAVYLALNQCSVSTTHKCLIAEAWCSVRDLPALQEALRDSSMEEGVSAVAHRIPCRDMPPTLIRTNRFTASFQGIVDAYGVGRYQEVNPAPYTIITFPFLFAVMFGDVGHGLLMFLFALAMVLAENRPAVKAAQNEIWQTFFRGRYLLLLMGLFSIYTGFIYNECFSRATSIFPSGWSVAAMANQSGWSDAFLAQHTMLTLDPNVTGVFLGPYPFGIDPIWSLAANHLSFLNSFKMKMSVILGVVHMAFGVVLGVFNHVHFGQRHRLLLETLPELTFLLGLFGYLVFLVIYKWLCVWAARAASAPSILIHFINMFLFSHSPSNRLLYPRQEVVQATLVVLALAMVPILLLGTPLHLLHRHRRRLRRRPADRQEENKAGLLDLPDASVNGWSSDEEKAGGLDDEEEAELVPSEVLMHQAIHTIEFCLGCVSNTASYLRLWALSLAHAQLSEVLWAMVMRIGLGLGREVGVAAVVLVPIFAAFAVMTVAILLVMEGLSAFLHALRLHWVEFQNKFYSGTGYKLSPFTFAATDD
UniProt P52888, whole entry, looked up: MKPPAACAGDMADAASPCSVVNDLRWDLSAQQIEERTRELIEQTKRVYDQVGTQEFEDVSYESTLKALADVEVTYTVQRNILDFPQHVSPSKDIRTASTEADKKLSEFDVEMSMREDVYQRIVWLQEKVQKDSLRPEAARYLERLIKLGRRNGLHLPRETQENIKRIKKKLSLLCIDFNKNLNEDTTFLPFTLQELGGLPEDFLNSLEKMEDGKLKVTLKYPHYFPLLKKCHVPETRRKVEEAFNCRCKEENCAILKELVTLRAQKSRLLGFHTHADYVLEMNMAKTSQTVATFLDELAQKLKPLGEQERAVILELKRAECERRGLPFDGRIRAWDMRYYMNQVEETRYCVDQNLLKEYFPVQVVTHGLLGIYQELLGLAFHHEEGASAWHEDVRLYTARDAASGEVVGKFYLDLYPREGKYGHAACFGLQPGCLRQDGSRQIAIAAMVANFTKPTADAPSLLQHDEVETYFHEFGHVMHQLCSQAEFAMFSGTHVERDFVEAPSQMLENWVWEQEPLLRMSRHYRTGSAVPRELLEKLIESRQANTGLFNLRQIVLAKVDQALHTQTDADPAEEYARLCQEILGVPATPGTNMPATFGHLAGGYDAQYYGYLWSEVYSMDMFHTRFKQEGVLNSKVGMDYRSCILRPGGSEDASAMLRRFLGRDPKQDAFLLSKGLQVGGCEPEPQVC
UniProt P01033: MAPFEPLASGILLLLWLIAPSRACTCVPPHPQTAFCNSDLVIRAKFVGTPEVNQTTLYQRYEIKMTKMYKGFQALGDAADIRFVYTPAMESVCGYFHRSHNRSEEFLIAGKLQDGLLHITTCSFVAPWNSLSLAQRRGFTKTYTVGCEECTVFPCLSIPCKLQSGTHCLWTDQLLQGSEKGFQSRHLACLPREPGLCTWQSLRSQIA
UniProt Q9Y584: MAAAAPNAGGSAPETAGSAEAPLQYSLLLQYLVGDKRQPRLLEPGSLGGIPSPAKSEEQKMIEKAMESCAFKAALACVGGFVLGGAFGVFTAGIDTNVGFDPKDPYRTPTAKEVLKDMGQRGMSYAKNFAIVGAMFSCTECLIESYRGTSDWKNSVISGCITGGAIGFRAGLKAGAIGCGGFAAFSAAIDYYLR
UniProt O60830: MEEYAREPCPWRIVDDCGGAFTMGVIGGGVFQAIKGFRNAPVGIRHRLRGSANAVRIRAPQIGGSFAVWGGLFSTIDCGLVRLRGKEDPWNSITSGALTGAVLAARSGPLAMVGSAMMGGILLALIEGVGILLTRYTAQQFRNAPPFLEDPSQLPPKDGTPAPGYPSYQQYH
UniProt P07996: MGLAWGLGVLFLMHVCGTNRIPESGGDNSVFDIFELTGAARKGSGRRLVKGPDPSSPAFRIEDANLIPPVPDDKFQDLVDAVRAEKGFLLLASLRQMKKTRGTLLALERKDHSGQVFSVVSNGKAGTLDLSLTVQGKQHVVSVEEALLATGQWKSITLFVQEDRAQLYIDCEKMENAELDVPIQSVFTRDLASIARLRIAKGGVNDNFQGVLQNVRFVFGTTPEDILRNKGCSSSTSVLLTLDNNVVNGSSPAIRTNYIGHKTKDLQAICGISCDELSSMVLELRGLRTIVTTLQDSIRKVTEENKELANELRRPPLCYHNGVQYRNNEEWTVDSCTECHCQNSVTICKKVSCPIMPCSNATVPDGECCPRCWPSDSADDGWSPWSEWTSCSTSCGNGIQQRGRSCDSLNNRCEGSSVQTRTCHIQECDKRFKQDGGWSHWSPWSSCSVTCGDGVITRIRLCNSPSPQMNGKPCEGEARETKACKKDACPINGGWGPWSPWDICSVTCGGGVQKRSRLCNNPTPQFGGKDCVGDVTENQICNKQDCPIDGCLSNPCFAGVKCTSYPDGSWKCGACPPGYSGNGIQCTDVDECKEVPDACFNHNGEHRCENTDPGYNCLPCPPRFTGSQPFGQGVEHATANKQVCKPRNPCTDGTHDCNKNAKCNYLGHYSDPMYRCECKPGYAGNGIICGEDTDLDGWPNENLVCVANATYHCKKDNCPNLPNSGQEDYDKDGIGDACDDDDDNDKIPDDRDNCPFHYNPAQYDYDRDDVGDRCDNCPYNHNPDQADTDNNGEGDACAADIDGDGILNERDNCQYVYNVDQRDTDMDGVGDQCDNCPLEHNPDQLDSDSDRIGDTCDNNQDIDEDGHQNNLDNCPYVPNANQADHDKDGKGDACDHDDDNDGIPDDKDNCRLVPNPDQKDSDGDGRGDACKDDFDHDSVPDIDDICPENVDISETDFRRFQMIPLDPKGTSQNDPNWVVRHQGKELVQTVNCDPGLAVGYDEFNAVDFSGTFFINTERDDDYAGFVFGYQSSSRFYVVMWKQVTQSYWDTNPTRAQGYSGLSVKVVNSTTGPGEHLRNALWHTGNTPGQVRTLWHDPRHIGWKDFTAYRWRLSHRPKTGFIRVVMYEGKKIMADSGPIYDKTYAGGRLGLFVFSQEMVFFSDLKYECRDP
UniProt O60343: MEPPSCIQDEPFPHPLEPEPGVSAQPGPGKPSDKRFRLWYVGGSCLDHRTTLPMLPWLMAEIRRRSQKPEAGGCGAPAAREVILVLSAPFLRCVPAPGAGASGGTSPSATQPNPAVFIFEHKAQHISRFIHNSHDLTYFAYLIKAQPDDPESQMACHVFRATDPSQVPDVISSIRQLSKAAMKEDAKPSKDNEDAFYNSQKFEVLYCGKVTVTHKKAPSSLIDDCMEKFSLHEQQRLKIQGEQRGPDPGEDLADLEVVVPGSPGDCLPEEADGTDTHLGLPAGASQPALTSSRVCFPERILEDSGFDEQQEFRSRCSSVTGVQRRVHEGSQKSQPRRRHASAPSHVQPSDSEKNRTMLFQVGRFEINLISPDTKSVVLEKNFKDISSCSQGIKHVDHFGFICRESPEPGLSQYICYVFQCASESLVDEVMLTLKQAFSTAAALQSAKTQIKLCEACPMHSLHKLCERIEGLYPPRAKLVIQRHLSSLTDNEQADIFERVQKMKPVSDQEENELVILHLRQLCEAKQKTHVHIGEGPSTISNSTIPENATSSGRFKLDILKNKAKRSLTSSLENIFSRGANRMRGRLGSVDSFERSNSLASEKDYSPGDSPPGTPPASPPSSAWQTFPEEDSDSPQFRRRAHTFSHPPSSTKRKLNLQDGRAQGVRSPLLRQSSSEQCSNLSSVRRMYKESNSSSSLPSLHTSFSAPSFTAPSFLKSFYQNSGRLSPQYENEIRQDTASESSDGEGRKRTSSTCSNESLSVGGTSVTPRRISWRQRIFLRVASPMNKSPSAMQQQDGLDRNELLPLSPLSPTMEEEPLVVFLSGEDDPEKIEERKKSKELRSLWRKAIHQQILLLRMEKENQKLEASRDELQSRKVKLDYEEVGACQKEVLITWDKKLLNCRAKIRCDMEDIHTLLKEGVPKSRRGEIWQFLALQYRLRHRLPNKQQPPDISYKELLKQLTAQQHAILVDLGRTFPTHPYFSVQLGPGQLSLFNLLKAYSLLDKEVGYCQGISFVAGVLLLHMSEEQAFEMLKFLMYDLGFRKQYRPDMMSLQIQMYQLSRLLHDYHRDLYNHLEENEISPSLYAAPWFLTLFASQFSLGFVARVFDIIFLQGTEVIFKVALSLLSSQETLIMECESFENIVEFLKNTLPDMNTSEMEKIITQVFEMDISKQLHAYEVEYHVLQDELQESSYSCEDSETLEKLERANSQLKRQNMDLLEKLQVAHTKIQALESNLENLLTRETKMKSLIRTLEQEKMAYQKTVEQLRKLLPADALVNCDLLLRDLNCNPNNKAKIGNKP

Assays:
Assay in all cases: log2 fold change, soluble protein after heating vs DMSO (PISA); higher = thermal stabilisation; K562 cells, 10 uM, 30 min; active = over 0.2 and 3.5 SD of the protein, either way, in both replicates (recomputed)
erlotinib = compound: C#Cc1cccc(Nc2ncnc3cc(OCCOC)c(OCCOC)cc23)c1 [erlotinib]
Method in brief: (§1)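 Soluble protein was quantified by TMTpro 16plex LC-MS/MS after channel sums were equalised. It was obtained as the supernatant after 21,000xg for 90 min from pooled aliquots of K562 cells (2×10^6 cells/mL, 10 μM compound, 30 min) heated for 3 min across 48°C-58°C and extracted in PBS with 0.5% NP-40 at 4°C. Thermal stability values are relative to control samples and come from duplicates. They are given as log2 fold changes.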

[1] = compound: C/C(=N\NC(=O)C1=CC(=CC=C1)S(=O)(=O)N2CCOCC2)/C3=C(C=CC(=C3)Cl)O
Method in brief: as §1

[2] = compound: C1=CC(=C(C=C1Cl)C2=NC3=NC=CN=C3C(=N2)NC4=CC=NC=C4)F
Method in brief: as §1

[3] = compound: C1=CC(=CC=C1C2=NC3=C(N2)C=C(C=C3)C(=O)N)OC4=CC=C(C=C4)Cl
Method in brief: as §1

[4] = compound: C1=CC2=C(C=CC(=C2)/C=C\3/C(=O)NC(=NCC4=CC=CS4)S3)N=C1
Method in brief: as §1

[5] = compound: C1=CC2=NC=CN=C2C=C1/C=C/3\C(=O)NC(=O)S3
Method in brief: as §1

[6] = compound: C1=CC=C(C=C1)C2=NC(=C(N2)C3=CC=NC=C3)C4=CC(=C(C=C4)Cl)O
Method in brief: as §1

[7] = compound: C1=CC=C2C(=C1)C3=NNC4=CC=CC(=C43)C2=O
Method in brief: as §1

[8] = compound: C1CCN(C1)C(=O)NC2=CC=CC(=C2)NC3=NC=C(C(=N3)NCCC4=CN=CN4)Br
Method in brief: as §1

[9] = compound: C1CN(CCC1(CC2=CC=C(C=C2)Cl)N)C3=NC=NC4=C3C=CN4
Method in brief: as §1

IRAK-1-4 Inhibitor I = compound: C1COCCN1CCN2C3=CC=CC=C3N=C2NC(=O)C4=CC(=CC=C4)[N+](=O)[O-] [IRAK-1-4 Inhibitor I]
Method in brief: as §1

ibrutinib = compound: C=CC(=O)N1CCC[C@@H](n2nc(-c3ccc(Oc4ccccc4)cc3)c3c(N)ncnc32)C1 [ibrutinib]
Method in brief: as §1

[10] = compound: CC(=O)c1cnc2ccc(-c3cc(Cl)c(O)c(Cl)c3)nc2c1N[C@H]1CC[C@H](CN(C)C)CC1
Method in brief: as §1

ralimetinib = compound: CC(C)(C)Cn1c(N)nc2ccc(-c3[nH]c(C(C)(C)C)nc3-c3ccc(F)cc3)nc21 [ralimetinib]
Method in brief: as §1

[11] = compound: CC(C)(O)CC(=O)NCCn1ccc2ncnc(Nc3ccc(Oc4cccc(C(F)(F)F)c4)c(Cl)c3)c21
Method in brief: as §1

[12] = compound: CC(C)C1=C2N=C(C=C(N2N=C1)NCC3=CC=CC=C3)NCCCCCCN
Method in brief: as §1

[13] = compound: CC(C)C[C@@H](C=O)NC(=O)[C@H](CC(C)C)NC(=O)[C@H](CC(C)C)NC(=O)OCc1ccccc1
Method in brief: as §1

pinometostat = compound: CC(C)N(C[C@H]1O[C@@H](n2cnc3c(N)ncnc32)[C@H](O)[C@@H]1O)[C@H]1C[C@@H](CCc2nc3cc(C(C)(C)C)ccc3[nH]2)C1 [pinometostat]
Method in brief: as §1

[14] = compound: CC1=C(C(CC(=O)N1)C2=CC=C(C=C2)C(F)(F)F)C(=O)NC3=C(C=C4C(=C3)C=NN4)F
Method in brief: as §1

[15] = compound: CC1=C(C2=C(C=C1)C(=O)C3=CC=CC=C3N2CCCN)C
Method in brief: as §1

Measured: log2 fold change

THOC5 (UniProt Q13769)
inactive: erlotinib -0.101 | [1] 0.066 | [2] -0.032 | [3] 0.021 | [4] -0.035 | [5] 0.012 | [6] -0.074 | [7] 0.004 | [8] -0.025 | [9] -0.017 | IRAK-1-4 Inhibitor I 0.028 | ibrutinib -0.039 | [10] -0.071 | ralimetinib -0.03 | [11] 0.007 | [12] 0.028 | [13] 0.073 | pinometostat 0.012 | [14] -0.004 | [15] 0.093

TERF2 (UniProt Q15554)
inactive: erlotinib -0.017 | [1] -0.111 | [2] -0.251 | [3] -0.007 | [4] -0.06 | [5] 0.032 | [6] 0.078 | [7] -0.061 | [8] -0.104 | [9] 0.025 | IRAK-1-4 Inhibitor I -0.158 | ibrutinib -0.052 | [10] -0.017 | ralimetinib 0.205 | [11] -0.11 | [12] -0.045 | [13] 0.115 | pinometostat 0.163 | [14] 0 | [15] -0.009

TGM2 (UniProt P21980)
inactive: erlotinib 0.032 | [1] 0.008 | [2] 0.061 | [3] -0.021 | [4] -0.006 | [5] 0.01 | [6] 0.038 | [7] 0.003 | [8] -0.046 | [9] 0.083 | IRAK-1-4 Inhibitor I 0.026 | ibrutinib -0.001 | [10] -0.002 | ralimetinib -0.048 | [11] -0.027 | [12] 0.014 | [13] -0.083 | pinometostat -0.024 | [14] 0.025 | [15] -0.004

TCIRG1 (UniProt Q13488)
inactive: erlotinib 0.176 | [1] 0.173 | [2] -0.303 | [3] 0.085 | [4] -0.168 | [5] 0.014 | [6] -0.231 | [7] -0.054 | [8] -0.01 | [9] -0.24 | IRAK-1-4 Inhibitor I -0.058 | ibrutinib -0.008 | [10] -0.296 | ralimetinib 0.156 | [11] 0.104 | [12] -0.461 | [13] 0.369 | pinometostat 0.337 | [14] 0.182 | [15] 0.03

Reprinted from above (2 entries):
TGM2 (UniProt P21980)
inactive: erlotinib 0.032 | [1] 0.008 | [2] 0.061 | [3] -0.021 | [4] -0.006 | [5] 0.01 | [6] 0.038 | [7] 0.003 | [8] -0.046 | [9] 0.083 | IRAK-1-4 Inhibitor I 0.026 | ibrutinib -0.001 | [10] -0.002 | ralimetinib -0.048 | [11] -0.027 | [12] 0.014 | [13] -0.083 | pinometostat -0.024 | [14] 0.025 | [15] -0.004

TCIRG1 (UniProt Q13488)
inactive: erlotinib 0.176 | [1] 0.173 | [2] -0.303 | [3] 0.085 | [4] -0.168 | [5] 0.014 | [6] -0.231 | [7] -0.054 | [8] -0.01 | [9] -0.24 | IRAK-1-4 Inhibitor I -0.058 | ibrutinib -0.008 | [10] -0.296 | ralimetinib 0.156 | [11] 0.104 | [12] -0.461 | [13] 0.369 | pinometostat 0.337 | [14] 0.182 | [15] 0.03

More records

TBC1D22B (UniProt Q9NU19)
inactive: erlotinib 0.08 | [1] 0.059 | [2] 0.09 | [3] 0 | [4] -0.138 | [5] 0.07 | [6] 0.107 | [7] -0.016 | [8] -0.006 | [9] -0.024 | IRAK-1-4 Inhibitor I -0.029 | ibrutinib 0.003 | [10] -0.053 | ralimetinib -0.007 | [11] -0.198 | [12] -0.034 | [13] -0.044 | pinometostat -0.052 | [14] -0.001 | [15] -0.03

TDP2 isoform 2 (UniProt O95551)
inactive: erlotinib 0 | [1] 0.116 | [2] -0.013 | [3] 0.052 | [4] 0.034 | [5] 0.028 | [6] -0.055 | [7] 0.093 | [8] 0.026 | [9] -0.028 | IRAK-1-4 Inhibitor I 0.045 | ibrutinib -0.049 | [10] -0.013 | ralimetinib 0.029 | [11] -0.104 | [12] -0.097 | [13] 0.122 | pinometostat 0.025 | [14] 0.031 | [15] -0.1

TLE3 isoform 4 (UniProt Q04726)
inactive: erlotinib 0.039 | [1] -0.001 | [2] 0.071 | [3] 0.007 | [4] 0.028 | [5] -0.001 | [6] 0.046 | [7] -0.01 | [8] -0.011 | [9] 0.038 | IRAK-1-4 Inhibitor I 0.002 | ibrutinib 0.022 | [10] 0.008 | ralimetinib -0.03 | [11] -0.057 | [12] 0.083 | [13] -0.054 | pinometostat -0.027 | [14] 0.056 | [15] 0.026

THOP1 (UniProt P52888)
inactive: erlotinib 0.008 | [1] -0.008 | [2] 0.031 | [3] 0.003 | [4] -0.017 | [5] 0.037 | [6] 0.039 | [7] -0.024 | [8] -0.018 | [9] 0.064 | IRAK-1-4 Inhibitor I 0.026 | ibrutinib 0.023 | [10] 0.005 | ralimetinib -0.004 | [11] -0.021 | [12] 0.101 | [13] -0.053 | pinometostat -0.061 | [14] 0.032 | [15] -0.001

TIMP1 (UniProt P01033)
inactive: erlotinib -0.014 | [1] 0.04 | [2] -0.017 | [3] -0.065 | [4] -0.015 | [5] -0.047 | [6] 0.053 | [7] -0.043 | [8] -0.002 | [9] 0.03 | IRAK-1-4 Inhibitor I 0.014 | ibrutinib 0.027 | [10] 0.01 | ralimetinib -0.001 | [11] 0.05 | [12] 0.119 | [13] -0.076 | pinometostat 0.032 | [14] -0.02 | [15] -0.144

TIMM22 (UniProt Q9Y584)
inactive: erlotinib -0.013 | [1] 0.212 | [2] 0.006 | [3] -0.003 | [4] -0.173 | [5] 0.05 | [6] 0.063 | [7] -0.011 | [8] -0.075 | [9] 0.05 | IRAK-1-4 Inhibitor I 0 | ibrutinib 0.014 | [10] 0.134 | ralimetinib 0.172 | [11] 0.046 | [12] 0.044 | [13] -0.129 | pinometostat -0.12 | [14] 0.027 | [15] 0.052

TIMM17B (UniProt O60830)
inactive: erlotinib -0.023 | [1] -0.085 | [2] -0.007 | [3] -0.012 | [4] -0.016 | [5] 0.042 | [6] -0.061 | [7] -0.027 | [8] 0.083 | [9] 0.097 | IRAK-1-4 Inhibitor I 0.117 | ibrutinib 0.034 | [10] 0.006 | ralimetinib -0.035 | [11] 0.023 | [12] 0.041 | [13] 0.023 | pinometostat 0.057 | [14] 0.009 | [15] -0.173

TFDP1 (UniProt Q14186)
inactive: erlotinib 0.054 | [1] 0.021 | [2] 0.058 | [3] 0.037 | [4] 0.054 | [5] -0.023 | [6] -0.002 | [7] -0.026 | [8] 0.105 | [9] 0.015 | IRAK-1-4 Inhibitor I -0.061 | ibrutinib 0 | [10] 0.348 | ralimetinib 0.046 | [11] -0.076 | [12] -0.172 | [13] 0.017 | pinometostat 0.035 | [14] 0.01 | [15] -0.155

THBS1 (UniProt P07996)
inactive: erlotinib -0.146 | [1] -0.101 | [2] -0.011 | [3] 0.127 | [4] 0.087 | [5] -0.035 | [6] -0.088 | [7] -0.061 | [8] 0.065 | [9] 0.11 | IRAK-1-4 Inhibitor I 0 | ibrutinib 0.054 | [10] 0.151 | ralimetinib -0.006 | [11] 0.186 | [12] 0.063 | [13] 0.168 | pinometostat -0.123 | [14] 0.091 | [15] -0.11

TBC1D4 (UniProt O60343)
inactive: erlotinib -0.021 | [1] 0.058 | [2] 0.03 | [3] 0.033 | [4] 0.034 | [5] 0.018 | [6] -0.008 | [7] -0.034 | [8] -0.066 | [9] 0.004 | IRAK-1-4 Inhibitor I 0.09 | ibrutinib -0.079 | [10] -0.095 | ralimetinib 0.072 | [11] -0.073 | [12] -0.098 | [13] 0.01 | pinometostat -0.025 | [14] 0.045 | [15] -0.031

THOC3 (UniProt Q96J01)
inactive: erlotinib -0.042 | [1] 0.07 | [2] 0.015 | [3] 0.025 | [4] -0.008 | [5] 0.014 | [6] -0.03 | [7] 0.021 | [8] -0.011 | [9] -0.001 | IRAK-1-4 Inhibitor I 0.019 | ibrutinib 0.02 | [10] -0.006 | ralimetinib -0.022 | [11] 0 | [12] 0.032 | [13] 0.02 | pinometostat -0.013 | [14] 0 | [15] -0.034

TET1 (UniProt Q8NFU7)
inactive: erlotinib 0.357 | [1] -0.535 | [2] 0.093 | [3] -0.091 | [4] 0.268 | [5] -0.008 | [6] 0.116 | [7] 0.102 | [8] -0.129 | [9] 0.136 | IRAK-1-4 Inhibitor I -0.001 | ibrutinib -0.011 | [10] 0.008 | ralimetinib 0.069 | [11] -0.185 | [12] 0.219 | [13] -0.159 | pinometostat -0.089 | [14] 0.146 | [15] 0.184
